In publication PMC7475180, “The Arabidopsis TRM61/TRM6 complex is a bona fide tRNA N^1-methyladenosine methyltransferase” (Journal of Experimental Botany, 2020):
These are yes or no findings as the source states them, for the method shown. A result given as binding can be weak or reduced; the word gives no strength.

Sequences of proteins named here, by UniProt entry; tags and fusion partners are left off. A change or cut given only in a name is not applied to a line headed by its entry.
UniProt O80846: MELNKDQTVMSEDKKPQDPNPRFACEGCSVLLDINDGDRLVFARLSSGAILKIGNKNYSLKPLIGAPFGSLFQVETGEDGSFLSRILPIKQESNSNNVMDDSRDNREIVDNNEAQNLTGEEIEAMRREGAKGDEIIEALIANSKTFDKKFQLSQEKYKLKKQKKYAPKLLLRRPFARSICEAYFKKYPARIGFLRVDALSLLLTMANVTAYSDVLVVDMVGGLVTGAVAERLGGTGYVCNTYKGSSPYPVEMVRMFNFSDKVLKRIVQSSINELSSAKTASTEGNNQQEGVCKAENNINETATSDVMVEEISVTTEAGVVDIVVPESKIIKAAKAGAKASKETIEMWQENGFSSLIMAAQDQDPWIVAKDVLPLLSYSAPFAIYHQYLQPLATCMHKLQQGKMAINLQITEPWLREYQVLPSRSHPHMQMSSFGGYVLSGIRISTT

Target: BD-AtTRM61 (Arabidopsis) (UniProt F4K6U9)
Assay: two-hybrid; pGBKT7 (BD) and pGADT7 (AD) fusions co-transformed into yeast AH109; growth on SD/-Trp-Leu-His-Ade, 3-7 d at 30 °C

- binding: binds
Substance: AD-AtTRM6 (from UniProt O80846)
